{
  "source": "patent US20030170643A1",
  "about": "“Regulation of apoB treatment and drug screening for cardiovascular and metabolic disorders or syndromes” (priority 1999, published 2003)",
  "format_in_all_cases": "cell-based",
  "key": {"rat primary hepatocytes [1]": {"test_system": "rat primary hepatocytes", "assay": "Sub-cellular fractionation: ER and Golgi apoB100 content", "conditions": "4 hr, 0.8 mM FA, FIG. 10B"}, "rat primary hepatocytes [2]": {"test_system": "rat primary hepatocytes", "assay": "ApoB mass in conditioned medium by radioimmunoassay, with or without wortmannin", "conditions": "5 hours, no wortmannin; P<0.01"}, "rat hepatoma cells": {"test_system": "rat hepatoma cells", "assay": "Pulse-chase recovery of [35S]-apoB100 (apoB100 degradation) in rat hepatoma cells", "conditions": "15 to 120 minutes chase", "method": "FIG. 13 illustrates that either an iron chelator (DFX) or lipid antioxidants block DHA-stimulated apoB degradation and reactive oxygen species (ROS) production. Rat hepatoma cells were plated in culture wells and pre-incubated in media containing either DHA or DHA with one of the indicated compounds. Radiolabeled methionine/cysteine was added to the culture media for 15 minutes, after which time, the culture media were replaced by fresh media identical in composition except that radiolabeled methionine/cysteine were replaced by unlabeled methionone/cysteine. The recovery of labeled apoB100 ([^35S]-apoB100) from the media and cell lysate was determined at the indicated time points (with time 0 being the point when the fresh media were applied to the cells) by immunoprecipitating apoB species with a rabbit polyclonal antibody to rat apoB, resuspending the immunoprecipitates, combining aliquots from cell lysate and media samples from each well, resolving the protein contents of the combined immunoprecipitates by SDS-polyacrylamide gel electrophoresis (SDS-PAGE), and exposing the resultant gels to X-ray film in order to visualize the labeled apoB bands. […] In panel C, the ROS content of the cell lysates at the end of the experiment was measured by the standard TBARS assay (Stocks et al., 1974, Clin Sci Mol Med 47,215-222). […]"}},
  "note": "At least one compound was matched to its structure with a doubt left.",
  "data": [
    {"smiles": "CC/C=C\\C/C=C\\C/C=C\\C/C=C\\C/C=C\\C/C=C\\CCC(=O)O", "note": "[DHA, docosahexaenoic acid]", "values": [
      {"measurement": "apoB100 content of the Golgi fractions", "setting": "rat primary hepatocytes [1]", "result": "striking loss"},
      {"measurement": "apoB recovery (total apoB mass in conditioned medium) compared to control", "setting": "rat primary hepatocytes [2]", "result": "significantly decreased"},
      {"measurement": "apoB100 degradation induced by the fatty acid", "setting": "rat hepatoma cells", "result": "decreased cell lysate and medium recovery"}
    ]}
  ]
}
